The list shows a part of the results. Repeats are few or missing, and single values can be far off.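 Cells were imaged in 1,536-well plates, and nuclei stained with an antibody against cleaved PARP were counted against all DNA-stained nuclei to give the apoptosis fraction. Screening doses were chosen to leave most cells alive, and resting and induced cleaved-PARP levels differ strongly between cell lines.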
Columns and labels:
Assay in all cases: cleaved PARP positive nuclei fraction relative to DMSO control; melanoma cells; higher = more apoptosis
Details in all cases: library dose: low library concentration; 72 h
WM115 = system: WM115
WM1716 = system: WM1716
WM1745 = system: WM1745
WM3526 = system: WM3526
WM3619 = system: WM3619
WM451Lu = system: WM451Lu

| Structure (SMILES) | cleaved PARP positive nuclei fraction (WM115) [%] | cleaved PARP positive nuclei fraction (WM1716) [%] | cleaved PARP positive nuclei fraction (WM1745) [%] | cleaved PARP positive nuclei fraction (WM3526) [%] | cleaved PARP positive nuclei fraction (WM3619) [%] | cleaved PARP positive nuclei fraction (WM451Lu) [%] |
| --- | --- | --- | --- | --- | --- | --- |
| C[C@]1(O)C[C@@H](c2nc(-c3ccc4ccc(-c5ccccc5)nc4c3)c3c(N)nccn32)C1 + CC(=O)O[C@@]12CO[C@@H]1C[C@H](O)[C@@]1(C)C(=O)[C@H](O)C3=C(C)[C@@H](OC(=O)[C@H](O)[C@@H](NC(=O)OC(C)(C)C)c4ccccc4)C[C@@](O)([C@@H](OC(=O)c4ccccc4)[C@H]21)C3(C)C [Docetaxel] (first compound 0.4 µM, partner dose 0.0001 µM) | 364 | 328 | 245 | 438 | 137 | 70.1 |
| Cn1sc(=O)n(Cc2ccccc2)c1=O + c1cc(-c2cnn3cc(-c4ccc(OCCN5CCCCC5)cc4)cnc23)ccn1 [Dorsomorphin] (first compound 0.4 µM, partner dose 0.4 µM) | 53.1 | 141 | 110 | 78.8 | 80.9 | 79 |
| CCCCCCCCc1ccc(CCC(N)(CO)CO)cc1 [fingolimod] + NC(=O)Nc1cc(-c2cccc(F)c2)sc1C(=O)N[C@H]1CCCNC1 [AZD7762] (first compound 2 µM, partner dose 0.02 µM) | 59.1 | 314 | 138 | 77.9 | 246 | 40.7 |
| NC1(c2ccc(-c3nc4ccn5c(=O)[nH]nc5c4cc3-c3ccccc3)cc2)CCC1 + O=C1NC(=O)/C(=C/c2ccc(-c3ccc(F)cc3O)o2)S1 [AS252424] (first compound 0.4 µM, partner dose 1 µM) | 266 | 57.4 | 110 | 119 | 92.7 | 38 |
| Cn1sc(=O)n(Cc2ccccc2)c1=O + C#Cc1cccc(Nc2ncnc3cc(OCCOC)c(OCCOC)cc23)c1 [erlotinib] (first compound 0.4 µM, partner dose 0.8 µM) | 70.9 | 118 | 115 | 29.5 | 88.3 | 191 |
| CS(=O)(=O)c1ccc(C(=O)Nc2ccc(Cl)c(-c3ccccn3)c2)c(Cl)c1 [vismodegib] + COc1cc2ncnc(Nc3ccc(Oc4ccccc4)cc3)c2cc1OC [SrcI1] (first compound 1 µM, partner dose 2 µM) | 152 | 43.1 | 91.8 | 73 | 101 | 65 |
| CN(c1ncccc1CNc1nc(Nc2ccc3c(c2)CC(=O)N3)ncc1C(F)(F)F)S(C)(=O)=O + CN1CCN(c2ccc3nc(-c4c(N)c5c(F)cccc5[nH]c4=O)[nH]c3c2)CC1 [Dovitinib] (first compound 0.08 µM, partner dose 0.1 µM) | 200 | 252 | 116 | 56.5 | 80.1 | 55.6 |
| C[C@@H](N)c1ccc(C(=O)Nc2ccnc3[nH]ccc23)cc1 + CCN(CC)CCNC(=O)c1c(C)[nH]c(/C=C2\C(=O)Nc3ccc(F)cc32)c1C [sunitinib] (first compound 0.4 µM, partner dose 0.4 µM) | 78.6 | 53.8 | 279 | 48.6 | 62.6 | 90.4 |
| CS(=O)(=O)c1ccc(C(=O)Nc2ccc(Cl)c(-c3ccccn3)c2)c(Cl)c1 [vismodegib] + CN(C)S(=O)(=O)c1ccc2c(c1)/C(=C/c1cc3c([nH]1)CCCC3)C(=O)N2 [SU6656] (first compound 1 µM, partner dose 0.4 µM) | 38.7 | 101 | 202 | 60 | 168 | 117 |
| CC(=O)O[C@@]12CO[C@@H]1C[C@H](O)[C@@]1(C)C(=O)[C@H](O)C3=C(C)[C@@H](OC(=O)[C@H](O)[C@@H](NC(=O)OC(C)(C)C)c4ccccc4)C[C@@](O)([C@@H](OC(=O)c4ccccc4)[C@H]21)C3(C)C [Docetaxel] + CCCS(=O)(=O)Nc1ccc(F)c(C(=O)c2c[nH]c3ncc(Cl)cc23)c1F [PLX4720] (first compound 0.0001 µM, partner dose 0.08 µM) | 295 | 173 | 159 | 301 | 119 | 50.8 |
| CCCCCCCCc1ccc(CCC(N)(CO)CO)cc1 [fingolimod] + CC(=O)c1c(C)c2cnc(Nc3ccc(N4CCNCC4)cn3)nc2n(C2CCCC2)c1=O [palbociclib] (first compound 2 µM, partner dose 0.04 µM) | 127 | 104 | 111 | 227 | 126 | 332 |
| CC1(C)CCC(c2ccc(Cl)cc2)=C(CN2CCN(c3ccc(C(=O)NS(=O)(=O)c4ccc(N[C@H](CCN5CCOCC5)CSc5ccccc5)c(S(=O)(=O)C(F)(F)F)c4)cc3)CC2)C1 + COc1cc(N2CCC(N3CCN(C)CC3)CC2)ccc1Nc1ncc(Cl)c(Nc2ccccc2S(=O)(=O)C(C)C)n1 [NVP-TAE684] (first compound 0.4 µM, partner dose 0.08 µM) | 60.1 | 568 | 572 | 94 | 122 | 82.9 |
| NC(=O)c1ccc(N(C(N)=O)c2c(F)cccc2F)nc1-c1ccc(F)cc1F + CCCS(=O)(=O)Nc1ccc(F)c(C(=O)c2c[nH]c3ncc(Cl)cc23)c1F [PLX4720] (first compound 0.4 µM, partner dose 0.08 µM) | 202 | 58.3 | 112 | 67.6 | 105 | 91.4 |
| NC(=O)c1ccc(N(C(N)=O)c2c(F)cccc2F)nc1-c1ccc(F)cc1F + COc1ccc(-c2ccc3c(N4CCOCC4)nc(N4C[C@@H](C)O[C@@H](C)C4)nc3n2)cc1CO [KU0063794] (first compound 0.4 µM, partner dose 0.02 µM) | 112 | 50.6 | 98.1 | 52.7 | 98 | 22.4 |
| C[C@@H](N)c1ccc(C(=O)Nc2ccnc3[nH]ccc23)cc1 + Cn1cc(/C=C2\C(=O)Nc3cccnc32)c2ccccc21 [GW441756] (first compound 0.4 µM, partner dose 0.4 µM) | 116 | 131 | 94.7 | 63.5 | 85.9 | 174 |
| CS(=O)(=O)c1ccc(C(=O)Nc2ccc(Cl)c(-c3ccccn3)c2)c(Cl)c1 [vismodegib] + C=CCNC1=C2C[C@@H](C)C[C@H](OC)[C@H](O)[C@@H](C)/C=C(\C)[C@H](OC(N)=O)[C@@H](OC)/C=C\C=C(/C)C(=O)NC(=CC1=O)C2=O [Tanespimycin] (first compound 1 µM, partner dose 0.002 µM) | 48.8 | 171 | 102 | 20.4 | 80.6 | 212 |
| CN(c1ncccc1CNc1nc(Nc2ccc3c(c2)CC(=O)N3)ncc1C(F)(F)F)S(C)(=O)=O + COc1cc2ncnc(Nc3ccc(Oc4ccccc4)cc3)c2cc1OC [SrcI1] (first compound 0.08 µM, partner dose 2 µM) | 134 | 33.6 | 118 | 78.7 | 92 | 266 |
| CC1(C)CCC(c2ccc(Cl)cc2)=C(CN2CCN(c3ccc(C(=O)NS(=O)(=O)c4ccc(N[C@H](CCN5CCOCC5)CSc5ccccc5)c(S(=O)(=O)C(F)(F)F)c4)cc3)CC2)C1 + COc1cc2c(Oc3ccc4[nH]c(C)cc4c3F)ncnc2cc1OCCCN1CCCC1 [cediranib] (first compound 0.4 µM, partner dose 0.4 µM) | 220 | 240 | 1020 | 59.2 | 100 | 66 |
| Cn1sc(=O)n(Cc2ccccc2)c1=O + CN(C)S(=O)(=O)c1ccc2c(c1)/C(=C/c1cc3c([nH]1)CCCC3)C(=O)N2 [SU6656] (first compound 0.4 µM, partner dose 0.4 µM) | 419 | 101 | 103 | 62.9 | 100 | 86.1 |
| CC1(C)CCC(c2ccc(Cl)cc2)=C(CN2CCN(c3ccc(C(=O)NS(=O)(=O)c4ccc(N[C@H](CCN5CCOCC5)CSc5ccccc5)c(S(=O)(=O)C(F)(F)F)c4)cc3)CC2)C1 + COc1cc2ncnc(Nc3ccc(Oc4ccccc4)cc3)c2cc1OC [SrcI1] (first compound 0.4 µM, partner dose 2 µM) | 262 | 300 | 315 | 71.4 | 91.2 | 1250 |
| Cn1cnc2c(F)c(Nc3ccc(Br)cc3Cl)c(C(=O)NOCCO)cc21 [selumetinib] + CN(NC(=O)CC(=O)NN(C)C(=S)c1ccccc1)C(=S)c1ccccc1 [STA4783] (first compound 0.015 µM, partner dose 0.006 µM) | 110 | 82.3 | 250 | 144 | 179 | 59.6 |
| Cn1sc(=O)n(Cc2ccccc2)c1=O + COc1cc2ncnc(Nc3ccc(Oc4ccccc4)cc3)c2cc1OC [SrcI1] (first compound 0.4 µM, partner dose 2 µM) | 34 | 50.7 | 92.5 | 75.9 | 97.9 | 33.2 |
| COc1ccc(C2=N[C@@H](c3ccc(Cl)cc3)[C@@H](c3ccc(Cl)cc3)N2C(=O)N2CCNC(=O)C2)c(OC(C)C)c1 [Nutlin-3] + CO[C@@H]1[C@H](N(C)C(=O)c2ccccc2)C[C@H]2O[C@]1(C)n1c3ccccc3c3c4c(c5c6ccccc6n2c5c31)C(=O)NC4 [Midostaurin] (first compound 0.1 µM, partner dose 0.08 µM) | 188 | 185 | 110 | 61.3 | 141 | 115 |

An excerpt from above, showing only cleaved PARP positive nuclei fraction (WM451Lu) [%]:
Structure (SMILES)	cleaved PARP positive nuclei fraction (WM451Lu) [%]
CCCCCCCCc1ccc(CCC(N)(CO)CO)cc1 [fingolimod] + NC(=O)Nc1cc(-c2cccc(F)c2)sc1C(=O)N[C@H]1CCCNC1 [AZD7762] (first compound 2 µM, partner dose 0.02 µM)	40.7
NC1(c2ccc(-c3nc4ccn5c(=O)[nH]nc5c4cc3-c3ccccc3)cc2)CCC1 + O=C1NC(=O)/C(=C/c2ccc(-c3ccc(F)cc3O)o2)S1 [AS252424] (first compound 0.4 µM, partner dose 1 µM)	38
